Measurements as given in the supplement of paper PMC12819154, “High-throughput peptide-centric local stability assay extends protein–ligand identification to membrane proteins, tissues and bacteria” (Nature Structural & Molecular Biology, 2025).
Some of the results follow. Small differences around the control level are noise.

Protein sequences, listed by entry. Tags and fused reporters are not part of them. Lines headed by an entry give the natural chain unless they say otherwise; changes in a name come on top.
UniProt Q14151: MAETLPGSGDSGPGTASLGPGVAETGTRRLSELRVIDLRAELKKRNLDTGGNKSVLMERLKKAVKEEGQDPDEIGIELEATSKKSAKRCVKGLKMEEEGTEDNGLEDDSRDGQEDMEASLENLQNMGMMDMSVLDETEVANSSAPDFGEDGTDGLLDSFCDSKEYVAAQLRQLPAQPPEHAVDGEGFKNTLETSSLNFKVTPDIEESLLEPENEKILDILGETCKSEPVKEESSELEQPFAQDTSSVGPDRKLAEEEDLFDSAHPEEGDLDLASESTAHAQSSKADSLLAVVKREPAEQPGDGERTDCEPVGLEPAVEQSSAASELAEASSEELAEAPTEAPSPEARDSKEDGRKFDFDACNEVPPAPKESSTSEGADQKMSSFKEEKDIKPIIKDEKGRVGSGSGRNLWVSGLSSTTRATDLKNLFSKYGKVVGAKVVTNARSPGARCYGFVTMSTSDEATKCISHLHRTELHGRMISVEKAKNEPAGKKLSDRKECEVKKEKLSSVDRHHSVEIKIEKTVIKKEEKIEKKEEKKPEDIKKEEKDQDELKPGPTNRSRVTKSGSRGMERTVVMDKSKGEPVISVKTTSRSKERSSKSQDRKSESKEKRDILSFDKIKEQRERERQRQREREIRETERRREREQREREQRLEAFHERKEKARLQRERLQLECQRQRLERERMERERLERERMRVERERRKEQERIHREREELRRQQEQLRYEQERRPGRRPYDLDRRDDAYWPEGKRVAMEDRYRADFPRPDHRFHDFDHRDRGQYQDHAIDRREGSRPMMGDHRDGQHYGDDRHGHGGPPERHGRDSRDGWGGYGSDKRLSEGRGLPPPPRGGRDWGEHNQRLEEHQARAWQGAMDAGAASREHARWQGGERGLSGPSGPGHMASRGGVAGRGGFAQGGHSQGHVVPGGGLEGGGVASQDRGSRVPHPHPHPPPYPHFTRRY
UniProt Q13469: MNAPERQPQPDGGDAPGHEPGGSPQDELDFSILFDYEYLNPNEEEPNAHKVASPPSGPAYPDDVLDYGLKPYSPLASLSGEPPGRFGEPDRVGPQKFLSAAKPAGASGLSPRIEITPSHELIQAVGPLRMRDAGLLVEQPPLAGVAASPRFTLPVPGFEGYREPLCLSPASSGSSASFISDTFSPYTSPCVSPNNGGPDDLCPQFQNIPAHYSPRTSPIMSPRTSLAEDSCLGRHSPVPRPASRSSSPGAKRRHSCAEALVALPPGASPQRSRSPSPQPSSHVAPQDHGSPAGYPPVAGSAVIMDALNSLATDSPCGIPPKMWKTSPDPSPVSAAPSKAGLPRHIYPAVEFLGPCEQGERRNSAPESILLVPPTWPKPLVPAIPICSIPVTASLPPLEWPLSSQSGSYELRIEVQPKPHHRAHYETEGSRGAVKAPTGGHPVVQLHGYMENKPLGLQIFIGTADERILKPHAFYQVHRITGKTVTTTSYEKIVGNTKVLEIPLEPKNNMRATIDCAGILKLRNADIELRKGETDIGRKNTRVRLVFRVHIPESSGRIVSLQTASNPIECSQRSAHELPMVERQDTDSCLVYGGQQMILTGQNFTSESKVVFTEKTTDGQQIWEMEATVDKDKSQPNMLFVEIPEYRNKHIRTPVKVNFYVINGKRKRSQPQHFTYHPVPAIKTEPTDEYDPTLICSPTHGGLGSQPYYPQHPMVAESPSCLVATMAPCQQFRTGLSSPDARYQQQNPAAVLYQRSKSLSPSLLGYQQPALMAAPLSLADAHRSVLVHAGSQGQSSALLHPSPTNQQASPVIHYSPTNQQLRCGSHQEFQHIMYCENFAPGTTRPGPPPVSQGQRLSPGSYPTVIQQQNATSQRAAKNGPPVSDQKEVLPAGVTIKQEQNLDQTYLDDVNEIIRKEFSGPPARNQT
UniProt Q13227: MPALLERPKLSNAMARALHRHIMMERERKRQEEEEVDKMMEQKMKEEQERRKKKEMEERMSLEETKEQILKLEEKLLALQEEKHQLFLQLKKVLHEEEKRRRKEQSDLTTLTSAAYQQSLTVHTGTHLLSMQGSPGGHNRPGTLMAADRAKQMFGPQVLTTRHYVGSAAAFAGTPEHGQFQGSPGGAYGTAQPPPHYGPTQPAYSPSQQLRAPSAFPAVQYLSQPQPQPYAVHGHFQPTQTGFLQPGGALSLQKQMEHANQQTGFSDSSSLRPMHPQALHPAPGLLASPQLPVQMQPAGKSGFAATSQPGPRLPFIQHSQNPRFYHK
UniProt Q13416: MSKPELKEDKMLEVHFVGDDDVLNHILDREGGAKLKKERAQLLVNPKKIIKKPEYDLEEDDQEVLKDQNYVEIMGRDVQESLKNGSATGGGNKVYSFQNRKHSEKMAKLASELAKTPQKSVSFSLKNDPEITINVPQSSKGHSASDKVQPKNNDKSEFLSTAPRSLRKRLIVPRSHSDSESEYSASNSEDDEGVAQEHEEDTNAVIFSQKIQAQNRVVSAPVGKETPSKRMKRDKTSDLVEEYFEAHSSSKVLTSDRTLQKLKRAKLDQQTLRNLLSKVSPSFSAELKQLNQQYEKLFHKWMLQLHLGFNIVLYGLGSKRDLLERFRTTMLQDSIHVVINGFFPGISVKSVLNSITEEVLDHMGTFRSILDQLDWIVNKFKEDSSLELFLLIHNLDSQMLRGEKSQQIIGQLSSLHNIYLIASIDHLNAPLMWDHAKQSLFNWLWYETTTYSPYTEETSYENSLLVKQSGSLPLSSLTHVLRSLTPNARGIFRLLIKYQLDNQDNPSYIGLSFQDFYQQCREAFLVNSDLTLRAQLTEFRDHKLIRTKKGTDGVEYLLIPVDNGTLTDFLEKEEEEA
UniProt Q13127: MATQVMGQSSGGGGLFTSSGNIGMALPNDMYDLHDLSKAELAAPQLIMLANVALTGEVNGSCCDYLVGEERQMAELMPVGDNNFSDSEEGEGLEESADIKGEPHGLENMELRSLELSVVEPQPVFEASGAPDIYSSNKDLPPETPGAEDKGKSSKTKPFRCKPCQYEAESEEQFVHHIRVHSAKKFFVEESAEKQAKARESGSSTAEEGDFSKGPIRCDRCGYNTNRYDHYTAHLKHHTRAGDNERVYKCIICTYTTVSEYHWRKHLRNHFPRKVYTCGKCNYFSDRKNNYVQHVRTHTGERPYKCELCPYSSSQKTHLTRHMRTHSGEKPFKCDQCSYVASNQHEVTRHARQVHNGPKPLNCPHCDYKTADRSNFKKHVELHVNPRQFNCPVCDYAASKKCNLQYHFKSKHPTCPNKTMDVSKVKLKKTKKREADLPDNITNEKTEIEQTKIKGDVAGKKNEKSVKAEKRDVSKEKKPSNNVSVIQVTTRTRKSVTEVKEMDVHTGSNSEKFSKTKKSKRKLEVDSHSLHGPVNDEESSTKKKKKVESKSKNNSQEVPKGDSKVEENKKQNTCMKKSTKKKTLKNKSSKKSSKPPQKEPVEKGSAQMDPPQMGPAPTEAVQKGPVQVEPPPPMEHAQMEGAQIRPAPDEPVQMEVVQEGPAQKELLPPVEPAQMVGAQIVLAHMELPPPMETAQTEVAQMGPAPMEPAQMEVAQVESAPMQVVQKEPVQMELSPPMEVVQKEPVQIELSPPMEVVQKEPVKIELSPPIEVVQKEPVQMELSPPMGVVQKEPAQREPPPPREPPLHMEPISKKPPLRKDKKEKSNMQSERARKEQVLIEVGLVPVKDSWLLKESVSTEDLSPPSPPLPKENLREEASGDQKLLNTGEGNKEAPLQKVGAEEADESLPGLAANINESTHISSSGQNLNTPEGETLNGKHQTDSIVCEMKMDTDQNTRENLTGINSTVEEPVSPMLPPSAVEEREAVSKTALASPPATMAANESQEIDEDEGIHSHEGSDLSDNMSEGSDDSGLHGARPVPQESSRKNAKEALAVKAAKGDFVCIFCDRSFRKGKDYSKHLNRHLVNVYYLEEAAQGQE
UniProt Q14680: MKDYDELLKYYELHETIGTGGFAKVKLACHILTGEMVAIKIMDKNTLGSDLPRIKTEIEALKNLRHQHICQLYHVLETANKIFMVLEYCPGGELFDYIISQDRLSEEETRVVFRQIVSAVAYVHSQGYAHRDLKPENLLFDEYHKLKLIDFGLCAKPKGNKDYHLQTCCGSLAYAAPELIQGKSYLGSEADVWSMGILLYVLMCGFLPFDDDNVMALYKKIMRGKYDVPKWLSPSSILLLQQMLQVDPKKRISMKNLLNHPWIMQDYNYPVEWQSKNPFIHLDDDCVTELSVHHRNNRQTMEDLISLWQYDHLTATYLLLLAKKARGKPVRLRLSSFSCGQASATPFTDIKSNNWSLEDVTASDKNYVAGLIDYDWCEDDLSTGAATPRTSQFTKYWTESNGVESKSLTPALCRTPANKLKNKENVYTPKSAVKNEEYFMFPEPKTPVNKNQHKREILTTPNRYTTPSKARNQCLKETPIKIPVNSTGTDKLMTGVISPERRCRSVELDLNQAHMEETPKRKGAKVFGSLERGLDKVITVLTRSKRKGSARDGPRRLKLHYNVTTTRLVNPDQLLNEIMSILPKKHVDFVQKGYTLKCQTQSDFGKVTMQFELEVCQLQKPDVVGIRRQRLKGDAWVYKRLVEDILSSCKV
UniProt Q13496: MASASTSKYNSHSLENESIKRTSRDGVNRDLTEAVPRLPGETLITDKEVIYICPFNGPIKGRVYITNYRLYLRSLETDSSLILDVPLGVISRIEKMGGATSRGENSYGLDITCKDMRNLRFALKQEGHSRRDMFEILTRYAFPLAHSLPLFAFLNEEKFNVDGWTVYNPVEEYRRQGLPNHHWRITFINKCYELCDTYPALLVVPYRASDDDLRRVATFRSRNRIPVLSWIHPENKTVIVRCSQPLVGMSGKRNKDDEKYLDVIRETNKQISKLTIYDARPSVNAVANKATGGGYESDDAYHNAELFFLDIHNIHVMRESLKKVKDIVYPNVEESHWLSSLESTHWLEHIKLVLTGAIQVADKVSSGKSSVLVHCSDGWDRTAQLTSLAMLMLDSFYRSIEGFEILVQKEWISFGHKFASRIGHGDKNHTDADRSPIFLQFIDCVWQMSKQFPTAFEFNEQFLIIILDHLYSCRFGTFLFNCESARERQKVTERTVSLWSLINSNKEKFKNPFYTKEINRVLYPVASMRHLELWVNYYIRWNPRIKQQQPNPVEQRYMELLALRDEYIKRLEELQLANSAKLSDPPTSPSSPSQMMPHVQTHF
UniProt Q14562: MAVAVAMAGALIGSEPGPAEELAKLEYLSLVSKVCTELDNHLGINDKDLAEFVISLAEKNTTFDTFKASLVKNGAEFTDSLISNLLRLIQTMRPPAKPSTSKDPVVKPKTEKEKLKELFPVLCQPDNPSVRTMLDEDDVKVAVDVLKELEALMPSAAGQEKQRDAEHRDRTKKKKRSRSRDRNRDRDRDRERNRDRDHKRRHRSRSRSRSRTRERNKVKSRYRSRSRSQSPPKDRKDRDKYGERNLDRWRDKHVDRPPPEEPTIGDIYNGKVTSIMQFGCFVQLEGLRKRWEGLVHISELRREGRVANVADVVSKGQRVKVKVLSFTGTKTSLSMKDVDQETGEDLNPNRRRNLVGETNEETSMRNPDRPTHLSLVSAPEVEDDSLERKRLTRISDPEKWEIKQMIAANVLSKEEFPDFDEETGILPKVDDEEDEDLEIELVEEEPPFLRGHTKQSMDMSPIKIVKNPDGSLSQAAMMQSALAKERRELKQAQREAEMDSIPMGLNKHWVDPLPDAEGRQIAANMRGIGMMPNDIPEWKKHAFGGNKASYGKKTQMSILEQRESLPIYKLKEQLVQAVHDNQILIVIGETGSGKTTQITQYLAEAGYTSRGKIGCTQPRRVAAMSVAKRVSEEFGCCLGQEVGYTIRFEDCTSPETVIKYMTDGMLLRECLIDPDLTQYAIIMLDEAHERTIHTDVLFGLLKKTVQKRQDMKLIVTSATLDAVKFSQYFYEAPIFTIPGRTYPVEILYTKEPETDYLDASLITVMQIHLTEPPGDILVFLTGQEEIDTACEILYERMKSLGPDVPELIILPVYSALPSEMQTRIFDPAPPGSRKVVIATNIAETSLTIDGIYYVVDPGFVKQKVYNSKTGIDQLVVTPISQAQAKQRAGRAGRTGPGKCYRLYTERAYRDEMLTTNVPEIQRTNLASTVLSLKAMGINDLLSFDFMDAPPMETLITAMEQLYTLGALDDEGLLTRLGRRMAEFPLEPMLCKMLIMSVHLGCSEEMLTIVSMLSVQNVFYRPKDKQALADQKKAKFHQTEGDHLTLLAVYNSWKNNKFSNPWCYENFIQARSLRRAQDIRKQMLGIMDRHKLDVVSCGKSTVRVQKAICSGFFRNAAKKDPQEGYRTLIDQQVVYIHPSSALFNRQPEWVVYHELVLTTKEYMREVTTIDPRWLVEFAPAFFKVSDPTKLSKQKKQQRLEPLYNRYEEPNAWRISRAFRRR
UniProt Q13526, whole entry: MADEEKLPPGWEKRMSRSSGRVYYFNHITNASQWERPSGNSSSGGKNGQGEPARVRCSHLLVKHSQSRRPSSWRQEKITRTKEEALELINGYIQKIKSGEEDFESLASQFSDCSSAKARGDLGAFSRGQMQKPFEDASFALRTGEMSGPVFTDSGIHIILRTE

What follows are targets tested with Cc1nc(Nc2ncc(C(=O)Nc3c(C)cccc3Cl)s2)cc(N2CCN(CCO)CC2)n1 [dasatinib] (assay: log2 fold change of tryptic peptide abundance, ligand vs vehicle (limited proteolysis) (log2 ratio); higher = more trypsin-susceptible (destabilized)). Details: ligand concentration: 5 uM; sample: K562 cleared lysate.
“PPIG (peptide sequence: SNEHDHSK, peptide start residue: 527) (UniProt Q13427)” showed a log2 fold change of 0.609. Target “DCTN1 (peptide sequence: QMEVAQANR, peptide start residue: 575) (UniProt Q14203)” has a log2 fold change of -0.224. “EIF2B5 (peptide sequence: VSNLHMYSAVCADVIRR, peptide start residue: 300) (UniProt Q13144)” gave a log2 fold change of 0.214. For “PLD1 (peptide sequence: PHADTGSIR, peptide start residue: 620) (UniProt Q13393)”, the log2 fold change was 0.126. “SHPRH (peptide sequence: GEFLPLQK, peptide start residue: 989) (UniProt Q149N8)” was tested, and the log2 fold change was 0.166. With “EIF4EBP2 (peptide sequence: KHAVGDDAQFEMDI, peptide start residue: 107) (UniProt Q13542)” the log2 fold change was 0.105. “SAFB2 (peptide sequence: NLWVSGLSSTTR, peptide start residue: 408) (UniProt Q14151)” showed a log2 fold change of 0.294. In the case of “LASP1 (peptide sequence: DSQDGSSYR, peptide start residue: 145) (UniProt Q14847)”, the log2 fold change is reported as -0.0837. “THOC5 (peptide sequence: RIQSCVHFMTLK, peptide start residue: 88) (UniProt Q13769)” was tested, and the log2 fold change was 0.785. With “NCAPH (peptide sequence: EAALAEVADEK, peptide start residue: 675) (UniProt Q15003)” the log2 fold change was 0.131. “CALCOCO2 (peptide sequence: QQELMDENFDLSKR, peptide start residue: 300) (UniProt Q13137)” gave a log2 fold change of 0.496. “NFATC2 (peptide sequence: TSLAEDSCLGR, peptide start residue: 224) (UniProt Q13469)” gave a log2 fold change of 0.153. “GPS2 (peptide sequence: VLHEEEK, peptide start residue: 93) (UniProt Q13227)” showed a log2 fold change of 0.838. For “UniProt Q13416 (peptide sequence: AQLTEFR, peptide start residue: 534)”, the log2 fold change was 0.164. “RRP1B (peptide sequence: SSTATHPPGPAVQLNKTPSSSK, peptide start residue: 661) (UniProt Q14684)” was tested, and the log2 fold change was 0.524. Work on “REST (peptide sequence: MDTDQNTR, peptide start residue: 949) (UniProt Q13127)” yielded a log2 fold change of -0.338. “MELK (peptide sequence: LKGDAWVYKR, peptide start residue: 631) (UniProt Q14680)” was tested, and the log2 fold change was 0.753. “TARDBP (peptide sequence: QSQDEPLR, peptide start residue: 182) (UniProt Q13148)” was tested, and the log2 fold change was -0.138. Work on “TOP3A (peptide sequence: KVLCVAEKNDAAK, peptide start residue: 35) (UniProt Q13472)” yielded a log2 fold change of -0.562. “OS9 (peptide sequence: LPAGAIHFQR, peptide start residue: 75) (UniProt Q13438)” showed a log2 fold change of 0.397. “UniProt Q13946 (peptide sequence: YHLGVSPLCDR, peptide start residue: 394)” was tested, and the log2 fold change was 0.759. “MTM1 (peptide sequence: LEELQLANSAK, peptide start residue: 571) (UniProt Q13496)” gave a log2 fold change of -0.668. “UniProt Q14289 (peptide sequence: SNFELLEK, peptide start residue: 199)” was tested, and the log2 fold change was 0.196. In the case of “UniProt Q14CX7 (peptide sequence: MAIQQADKLLKK, peptide start residue: 29)”, the log2 fold change is reported as 0.0964. Work on “UniProt Q13106 (peptide sequence: VHTGEKPYECTECGK, peptide start residue: 538)” yielded a log2 fold change of -0.0407. Work on “UniProt Q14562 (peptide sequence: TMLDEDDVKVAVDVLK, peptide start residue: 132)” yielded a log2 fold change of -0.621. In the case of “UniProt Q14094 (peptide sequence: KVEEMEVDDFYDGIKR, peptide start residue: 324)”, the log2 fold change is reported as -0.536. With “CHAF1B (peptide sequence: TLQPSSQNTK, peptide start residue: 468) (UniProt Q13112)” the log2 fold change was 0.105. Target “BECN1 (peptide sequence: YAQTQLDK, peptide start residue: 256) (UniProt Q14457)” has a log2 fold change of 0.553. “PRPF4B (peptide sequence: ELEFLKK, peptide start residue: 732) (UniProt Q13523)” was tested, and the log2 fold change was 0.241. Target “PEX6 (peptide sequence: LVFVGANEDR, peptide start residue: 867) (UniProt Q13608)” has a log2 fold change of -0.2. In the case of “PIN1 (peptide sequence: VYYFNHITNASQWER, peptide start residue: 22) (UniProt Q13526)”, the log2 fold change is reported as 0.189. “UniProt Q14004 (peptide sequence: TKPLTPSIGAK, peptide start residue: 584)” gave a log2 fold change of -0.158. “CASP8 (peptide sequence: SKPRGYCLIINNHNFAK, peptide start residue: 230) (UniProt Q14790)” gave a log2 fold change of 0.631. Target “HNRNPD (peptide sequence: HSEAATAQREEWK, peptide start residue: 86) (UniProt Q14103)” has a log2 fold change of 0.0996. In the case of “TRIM25 (peptide sequence: DEFEFLEK, peptide start residue: 303) (UniProt Q14258)”, the log2 fold change is reported as -0.335.
